Data from PMC12859066.
These are yes or no findings as the source states them, for the method shown. In cells and extracts the contact can be indirect. Some binding calls cover weakened binding; strength is not graded here.

Sequences of proteins named here, by UniProt entry; tags and fusion partners are left off.
UniProt P36402: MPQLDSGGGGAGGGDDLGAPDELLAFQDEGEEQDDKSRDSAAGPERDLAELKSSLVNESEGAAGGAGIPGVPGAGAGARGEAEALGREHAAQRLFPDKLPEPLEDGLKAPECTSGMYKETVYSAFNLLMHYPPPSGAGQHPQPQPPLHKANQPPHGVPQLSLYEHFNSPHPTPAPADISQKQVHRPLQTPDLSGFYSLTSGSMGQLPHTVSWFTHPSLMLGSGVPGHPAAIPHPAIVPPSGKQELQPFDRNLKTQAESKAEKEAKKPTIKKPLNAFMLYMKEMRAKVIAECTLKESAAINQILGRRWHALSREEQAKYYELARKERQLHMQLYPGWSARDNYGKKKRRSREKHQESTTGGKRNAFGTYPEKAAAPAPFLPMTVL
UniProt P35222: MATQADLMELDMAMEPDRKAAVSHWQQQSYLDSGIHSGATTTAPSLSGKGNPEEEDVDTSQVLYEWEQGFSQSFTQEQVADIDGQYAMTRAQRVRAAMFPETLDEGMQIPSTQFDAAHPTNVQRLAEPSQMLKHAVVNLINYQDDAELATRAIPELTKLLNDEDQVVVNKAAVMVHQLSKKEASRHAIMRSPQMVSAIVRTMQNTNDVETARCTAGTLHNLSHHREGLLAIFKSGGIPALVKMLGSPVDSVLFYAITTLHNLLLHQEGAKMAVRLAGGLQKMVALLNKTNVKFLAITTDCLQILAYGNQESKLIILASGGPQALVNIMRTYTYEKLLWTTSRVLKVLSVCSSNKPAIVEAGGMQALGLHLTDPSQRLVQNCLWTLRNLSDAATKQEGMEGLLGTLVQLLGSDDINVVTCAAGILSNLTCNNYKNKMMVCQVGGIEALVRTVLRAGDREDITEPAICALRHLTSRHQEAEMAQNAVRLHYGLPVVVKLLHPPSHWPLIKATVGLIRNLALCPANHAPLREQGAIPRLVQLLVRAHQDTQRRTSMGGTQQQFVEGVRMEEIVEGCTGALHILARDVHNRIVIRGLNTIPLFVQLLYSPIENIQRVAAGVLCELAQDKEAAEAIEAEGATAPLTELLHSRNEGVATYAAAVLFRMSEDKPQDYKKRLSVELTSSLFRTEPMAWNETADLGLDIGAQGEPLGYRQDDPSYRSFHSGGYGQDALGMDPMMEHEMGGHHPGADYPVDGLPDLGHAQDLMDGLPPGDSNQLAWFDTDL

Target: TCF7 (human (endogenous in ESC-RPE cells)) (UniProt P36402)
Assay: co-IP; Protein A + G magnetic beads with 5 μg antibodies (against TCF7, β-Catenin) or normal IgG; 5 × 10^6 cells lysed in IP lysis buffer, incubated with the beads at 4 °C overnight; washed with TBS; Western blotting

Substance: β-catenin (from UniProt P35222 1-781)
- binding: binds
